Data reported in article PMC3510080, “Identification of Compounds with Anti-Proliferative Activity against Trypanosoma brucei brucei Strain 427 by a Whole Cell Viability Based HTS Campaign” (PLoS Neglected Tropical Diseases, 2012).

Test system: T.b. brucei bloodstream form lister 427
Experiment: T.b. brucei Alamar Blue viability estimation assay (384-well HTS, retest and rescreen)
Format: cell-based, Trypanosoma brucei brucei
Settings: dose-response of resupplied and reference compounds
Procedure: T.b. brucei lister 427 cells were maintained in log phase growth in 25 cm^2 tissue culture flasks (Corning, NY, USA) by sub-culturing at either 24 or 48 hour intervals. Cells were grown in HMI-9 medium, supplemented with 10% fetal calf serum (FCS) and 100 IU/ml penicillin/streptomycin (Invitrogen, Carlsbad, California, USA) with incubation at 5% CO2 at 37°C in humidified conditions. HEK293 cells were maintained in high glucose DMEM with L-glutamine, supplemented with 1× non-essential amino acids (NEAA; Invitrogen, USA) and 1 mM sodium pyruvate. Growth conditions were in 5% CO2 at 37°C, under humidified conditions.
All reagent and cell additions were made with a Multidrop liquid handler (Thermo Scientific, Newington, NH, USA) under sterile conditions. Fifty-five microliters of 2000 cells/mL of T.b. brucei in HMI-9 medium were added to a black, clear-bottomed 384-well lidded plate (BD Biosciences, Franklin Lanes, NJ, USA). Cells were incubated for 24 hours at 37°C in an atmosphere of 5% CO2 before addition of 5 µl of compounds/DMSO for control wells. Compounds suspended in 100% DMSO or 100% DMSO as controls were pre-diluted 1∶21 in high glucose DMEM without FCS by using a Minitrack robotic liquid handler (PerkinElmer, Waltham, MA, USA). Five microliters of diluted sample was added to the plate to give a final DMSO concentration of 0.417% in the assay. Cells were incubated for an additional 48 hours at 37°C. Ten microliters of 70% Alamar Blue (Biosource, Bethesda, MD, USA) was added to each well (diluted in HMI-9 medium supplemented with 10% FCS) to a final concentration of 10% in the assay. The plate was incubated for two hours under the same conditions, then incubated for 22 hours in the dark at room temperature. Wells were read at 535 nm (excitation) and 590 nm (emission) wavelengths on a Victor II Wallac plate reader (PerkinElmer, USA). Specific dilutions are explained further in the primary and retest assay methodology. Reference drugs used in the assay were pentamidine (Sigma-Aldrich, St Louis, MO, USA), diminazene aceturate (Sigma-Aldrich, USA) and puromycin (Calbiochem, San Deigo, CA, USA). Pentamidine is used to treat patients with HAT and diminazene is a veterinary drug used against T.b. brucei to combat infections in cattle.
Primary screening of the library, consisting of 87,296 compounds in two hundred and forty eight 384-well plates, was undertaken in single point against T.b. brucei. Stock solutions consisted of test compound at a concentration of 5 mM in 100% DMSO. One µl of each compound stock solution was diluted by the addition of 40 µl of dilution medium (high glucose DMEM without FCS) by a multidrop liquid handler (Thermo Scientific, USA). A 5 µl sample of this diluted solution was then added to the trypanosome assay plate. The final concentration of test compound in the assay was […] and that of DMSO was 0.42% v/v. Compounds were screened over a total of 11 days, at an average of 80 plates per day, taking into consideration that the assay incubation was 3 days total. Test compounds were added to plates in batches of 20 at two hour intervals, to maintain the timing of additions and reads.
Compound activity was calculated as the percentage inhibition in relation to positive and negative controls. […] These in-plate negative controls were used in an effort to normalise compound activity in relation to any plate to plate variation in the assay signal. A whole 384-well control plate was included in each day's screening, one per 20 compound plates containing half a plate of 2 µM pentamidine for the positive assay control, and half a plate of 0.42% v/v DMSO as a negative control. The positive assay control was used to calculate compound activity for batches of 20 compound plates. As well providing the positive control data, these whole plate controls were used for the calculation of the Z' to measure the reproducibility of the assay.

SMILES	T.B Hill Slope
Cc1cc(O)nc(-n2nc(C)cc2NC(=O)C2CCCC2)n1 [Compound 4]	3.33
CCS(=O)(=O)N1CCCc2ccc(NS(=O)(=O)c3ccccc3F)cc21 [Compound 5]	3.09
CCc1ccccc1N=C(NCCN1CCOCC1)NC(=O)c1ccccc1 [Compound 8]	3.03
N=C(N)c1ccc(/N=N/Nc2ccc(C(=N)N)cc2)cc1 [Diminazene, diminazene aceturate, reference compound]	4.25
N=C(N)c1ccc(OCCCCCOc2ccc(C(=N)N)cc2)cc1 [Pentamidine, pentamidine, reference compound]	1.65
CCOc1ccc(OCc2ccc(C(=O)N3CCCC(C)C3)cc2)cc1 (centres unmarked) [Compound 3]	3.21
COc1ccc(C[C@H](N)C(=O)N[C@H]2[C@@H](O)[C@H](n3cnc4c(N(C)C)ncnc43)O[C@@H]2CO)cc1 [Puromycin, puromycin, reference compound]	4.90
O=C(NCCc1n[nH]c(-c2ccc(F)cc2)n1)c1cccc(F)c1 [Compound 2]	17.0
CC(C)(C)C(=O)NCCc1csc(-c2cccc(F)c2)n1 [Compound 1]	3.89
O=C(Nc1ccc(Cl)c(-c2nc3ncccc3o2)c1)c1ccco1 [Compound 7]	6.80
CCC(C)NC(=O)c1nc(-c2ccccc2)cnc1N (centres unmarked) [Compound 6]	0.785
